Percent effect of library compounds

Source: ChEMBL document CHEMBL3988442, “University of Dundee, Small-Polar-MMV Screening Library” (2021).

Mtb glucose medium: 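Growth of Mycobacterium tuberculosis over 3 days (7H9 medium with glucose and tyloxapol); the read-out is not stated. Compounds at 50 µM. The record gives no direction; compounds that gave an IC50 in retests scored well above the rest, so higher reads as more growth inhibition. Size under these conditions: about 69,000 compounds, about 760 of them at 50% or above in at least one test.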
Mtb cholesterol medium: 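Growth of Mycobacterium tuberculosis over 4 days (cholesterol / DPPC medium with tyloxapol); the read-out is not stated. Compounds at 50 µM. Higher reads as more growth inhibition (inferred: compounds with an IC50 in retests scored well above the rest). Size under these conditions: about 69,000 compounds, about 370 of them at 50% or above in at least one test.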

Values are the deposited “Percent Effect”, in %.
The controls that fix the scale are not given in the record; negative values are as filed.
This is an unselected part of the compounds tested.
Two or more numbers in one place are separate tests of the same structure; such repeats can differ widely.

{"compound": "COC(=O)c1ccc(NC(=O)[C@@H]2CCCN2C(=O)c2ccco2)s1", "Mtb glucose medium": 6.952, "Mtb cholesterol medium": -21.64}
{"compound": "CC(C)NC(=O)CNC(=O)c1csc(Cc2ccccc2F)n1", "Mtb glucose medium": -14.49, "Mtb cholesterol medium": -11.16}
{"compound": "[H][C@@]12NC(=O)N[C@@H](c3ccc(C(=O)O)cc3)[C@]1([H])CCCO2", "Mtb glucose medium": -11.44, "Mtb cholesterol medium": "-21.65 and -4.493"}
{"compound": "[H][C@@]12CCCN1C[C@@H](CCSC)N(Cc1cnn(C=C)c1C)C2", "Mtb glucose medium": 2.205, "Mtb cholesterol medium": -0.1569}
{"compound": "O=C(c1ccc(Cl)s1)N1CCC2(CNS(=O)(=O)c3cnccc3O2)C1", "stereo": "configuration not stated", "Mtb glucose medium": 8.032, "Mtb cholesterol medium": -2.919}
{"compound": "COc1ccc(C(CNC(=O)Nc2cn[nH]c2)N2CCOCC2)cc1", "stereo": "configuration not stated", "Mtb glucose medium": 0.02796, "Mtb cholesterol medium": -22}
{"compound": "CC(C)(C)n1cc(C(=O)O)c(-c2ccc(F)cc2F)n1", "Mtb glucose medium": 1.607, "Mtb cholesterol medium": "0.5823 and -4.542"}
{"compound": "Cc1cc(C)c(S(=O)(=O)NCCC(=O)NCc2ccoc2)c(C)c1", "Mtb glucose medium": 6.215, "Mtb cholesterol medium": "-0.5406 and -3.595"}
{"compound": "COCC1CC2(CCN(c3ccc(C)nn3)CC2)CN1C(C)C.O=C(O)C(F)(F)F", "stereo": "configuration not stated", "Mtb glucose medium": -16.38, "Mtb cholesterol medium": 7.642}
{"compound": "O=C1COc2ccc(C(=O)NS(=O)(=O)c3ccc(F)cc3F)cc2N1", "Mtb glucose medium": 22.47, "Mtb cholesterol medium": -4.192}
{"compound": "Cc1cccc(N2CCC3(CCCN3Cc3c(C)nn(C)c3C)CC2)n1", "Mtb glucose medium": 16.73, "Mtb cholesterol medium": 1.599}
{"compound": "CN1C[C@@H](F)[C@@H](OCc2nc3ccccc3n2C)C1", "Mtb glucose medium": "12.71 and -3.925", "Mtb cholesterol medium": 9.811}
{"compound": "CN(C1CCCC1)C(C)(C)C(=O)NCCS(C)(=O)=O", "Mtb glucose medium": 25.82, "Mtb cholesterol medium": -5.727}
{"compound": "O=C(c1cc(-n2cnnn2)ccc1Cl)N1CCC2(CC1)OCCO2", "Mtb glucose medium": "0.2025 and -7.64", "Mtb cholesterol medium": 14.69}
{"compound": "CC(C)(NCC(=O)NCCC#N)c1ccc2c(c1)OCCO2", "Mtb glucose medium": -3.736, "Mtb cholesterol medium": -4.209}
{"compound": "Cc1cnn(C2CCCN(C(=O)CCc3cnn(C)c3)C2)c1", "stereo": "configuration not stated", "Mtb glucose medium": "-38.42 and -2.856", "Mtb cholesterol medium": -4.757}
{"compound": "Cn1cccc1-c1cc(C(=O)N2CCCCC2c2ccc(F)cc2)[nH]n1", "stereo": "configuration not stated", "Mtb glucose medium": 11.27, "Mtb cholesterol medium": 17.81}
{"compound": "N#Cc1cccc(N2CCCC3(C2)CN(c2ncc(F)cn2)CCO3)n1.O=C(O)C(F)(F)F", "stereo": "configuration not stated", "Mtb glucose medium": "-20.15 and 6.868", "Mtb cholesterol medium": -3.381}
{"compound": "O=C(O)C(F)(F)F.[H][C@@]12C[C@@H](c3nnc(C)[nH]3)O[C@]1([H])CN(C1CCC1)C2", "Mtb glucose medium": "-4.164 and -41.07", "Mtb cholesterol medium": -8.935}
{"compound": "c1ccc2oc(N3CCCC4(CCOC4)C3)nc2c1", "stereo": "configuration not stated", "Mtb glucose medium": 24.99, "Mtb cholesterol medium": 15.05}
{"compound": "CC(=O)c1ccc(C(=O)NCc2cccnc2N2CCCC(O)C2)s1", "stereo": "configuration not stated", "Mtb glucose medium": -12.85, "Mtb cholesterol medium": 20.91}
{"compound": "Cn1ccc(C(=O)N2CCCCC23CC(=O)N(Cc2ccccc2)C3)n1", "stereo": "configuration not stated", "Mtb glucose medium": 25.23, "Mtb cholesterol medium": 8.69}
{"compound": "Cc1nc(S(=O)(=O)CCn2cccn2)n(C2CCCCC2)c1C", "Mtb glucose medium": "-16.03 and 2.463", "Mtb cholesterol medium": -1.833}
{"compound": "CCn1nc(C)c(CN2CCC(c3ccn[nH]3)C2)c1C", "stereo": "configuration not stated", "Mtb glucose medium": -7.021, "Mtb cholesterol medium": "2.492 and -22.56"}
{"compound": "COC1CCN(CCNC(=O)NC(C)c2cccc(Cl)c2)CC1", "stereo": "configuration not stated", "Mtb glucose medium": 7.827, "Mtb cholesterol medium": -3.102}
{"compound": "COC1(CNS(=O)(=O)c2ccccc2Cl)CCSC1", "stereo": "configuration not stated", "Mtb glucose medium": 46.29, "Mtb cholesterol medium": 26.27}
{"compound": "CC(=O)Nc1nc2c(s1)CN(CC(=O)Nc1ccc(C)c(Cl)c1)CC2", "Mtb glucose medium": 19.47, "Mtb cholesterol medium": 4.463}
{"compound": "Cc1cc(CN2CCN(C(=O)NC(C)c3ccc(C)o3)CC2)on1", "stereo": "configuration not stated", "Mtb glucose medium": 2.207, "Mtb cholesterol medium": 7.536}
{"compound": "Cc1sc2nc(C(F)(F)F)nc(N3CCCN(C)CC3)c2c1C", "Mtb glucose medium": -9.983, "Mtb cholesterol medium": 11.32}
{"compound": "Cc1ccc(S(=O)(=O)NCC(O)c2ccoc2)s1", "stereo": "configuration not stated", "Mtb glucose medium": 7.894, "Mtb cholesterol medium": -7.287}
{"compound": "COCCC(=O)N1CCCC(c2noc3nc(C)cc(C(F)(F)F)c23)C1", "stereo": "configuration not stated", "Mtb glucose medium": 24.26, "Mtb cholesterol medium": -9.31}
{"compound": "O=S(=O)(NCCn1cc(C2CCCNC2)nn1)c1ccc(Cl)cc1", "stereo": "configuration not stated", "Mtb glucose medium": -1.798, "Mtb cholesterol medium": 2.982}
{"compound": "N#CC1(C(=O)N2CCCN(c3nccs3)CC2)CCCCC1", "Mtb glucose medium": 13.69, "Mtb cholesterol medium": 8.138}
{"compound": "COc1ccc(C[C@H]2CN(C(=O)c3ccn(C)n3)CC[C@H]2OC)cc1", "Mtb glucose medium": 7.896, "Mtb cholesterol medium": 7.042}
{"compound": "CCOC(CC)C(=O)NCc1cccc(N2CCCCC2=O)c1", "stereo": "configuration not stated", "Mtb glucose medium": 9.378, "Mtb cholesterol medium": 10.21}
{"compound": "CCc1[nH]c2c(CNC(=O)C3CCC(=O)NC3)cc(C)cc2c1C", "stereo": "configuration not stated", "Mtb glucose medium": "-35.18 and -1.155", "Mtb cholesterol medium": 14.92}
{"compound": "COc1ccc(C2CCCN2C(=O)NCCCn2cccn2)cc1", "stereo": "configuration not stated", "Mtb glucose medium": 18.86, "Mtb cholesterol medium": "5.999 and -11.47"}
{"compound": "CCc1cnc2c(c1Nc1ccc(C)c(F)c1)c(=O)n(C)c(=O)n2C", "Mtb glucose medium": 4.979, "Mtb cholesterol medium": -3.795}
{"compound": "O=C(NCC1CCCO1)c1csc(Cc2ccccc2)n1", "stereo": "configuration not stated", "Mtb glucose medium": -31.89, "Mtb cholesterol medium": -42.75}
{"compound": "[H][C@]12CN(CCN3CCCC3=O)CC[C@@]1(O)CCN(c1ccc(C)nn1)C2", "Mtb glucose medium": -4.327, "Mtb cholesterol medium": 1.779}
{"compound": "COc1ccccc1OC1CCN(c2nccc(N)n2)CC1", "Mtb glucose medium": "-10.6 and 4.482", "Mtb cholesterol medium": -3.932}
{"compound": "COC(=O)c1ccc(Cn2nc(C)cc2C)cc1", "Mtb glucose medium": "-37.04 and -2.563", "Mtb cholesterol medium": -24.71}

The last 2 entries again:

| compound | Mtb glucose medium | Mtb cholesterol medium |
|---|---|---|
| `COc1ccccc1OC1CCN(c2nccc(N)n2)CC1` | -10.6 and 4.482 | -3.932 |
| `COC(=O)c1ccc(Cn2nc(C)cc2C)cc1` | -37.04 and -2.563 | -24.71 |